Measurements: patent US6372742B1, “Substituted indole compounds and methods of their use” (Geron Corporation, priority 1999, dated 2002)
Some results were stated once for a whole list of compounds, not compound by compound.

Sequences of proteins named here, by UniProt entry; tags and fusion partners are left off. A change or cut given only in a name is not applied to a line headed by its entry.
UniProt O14746: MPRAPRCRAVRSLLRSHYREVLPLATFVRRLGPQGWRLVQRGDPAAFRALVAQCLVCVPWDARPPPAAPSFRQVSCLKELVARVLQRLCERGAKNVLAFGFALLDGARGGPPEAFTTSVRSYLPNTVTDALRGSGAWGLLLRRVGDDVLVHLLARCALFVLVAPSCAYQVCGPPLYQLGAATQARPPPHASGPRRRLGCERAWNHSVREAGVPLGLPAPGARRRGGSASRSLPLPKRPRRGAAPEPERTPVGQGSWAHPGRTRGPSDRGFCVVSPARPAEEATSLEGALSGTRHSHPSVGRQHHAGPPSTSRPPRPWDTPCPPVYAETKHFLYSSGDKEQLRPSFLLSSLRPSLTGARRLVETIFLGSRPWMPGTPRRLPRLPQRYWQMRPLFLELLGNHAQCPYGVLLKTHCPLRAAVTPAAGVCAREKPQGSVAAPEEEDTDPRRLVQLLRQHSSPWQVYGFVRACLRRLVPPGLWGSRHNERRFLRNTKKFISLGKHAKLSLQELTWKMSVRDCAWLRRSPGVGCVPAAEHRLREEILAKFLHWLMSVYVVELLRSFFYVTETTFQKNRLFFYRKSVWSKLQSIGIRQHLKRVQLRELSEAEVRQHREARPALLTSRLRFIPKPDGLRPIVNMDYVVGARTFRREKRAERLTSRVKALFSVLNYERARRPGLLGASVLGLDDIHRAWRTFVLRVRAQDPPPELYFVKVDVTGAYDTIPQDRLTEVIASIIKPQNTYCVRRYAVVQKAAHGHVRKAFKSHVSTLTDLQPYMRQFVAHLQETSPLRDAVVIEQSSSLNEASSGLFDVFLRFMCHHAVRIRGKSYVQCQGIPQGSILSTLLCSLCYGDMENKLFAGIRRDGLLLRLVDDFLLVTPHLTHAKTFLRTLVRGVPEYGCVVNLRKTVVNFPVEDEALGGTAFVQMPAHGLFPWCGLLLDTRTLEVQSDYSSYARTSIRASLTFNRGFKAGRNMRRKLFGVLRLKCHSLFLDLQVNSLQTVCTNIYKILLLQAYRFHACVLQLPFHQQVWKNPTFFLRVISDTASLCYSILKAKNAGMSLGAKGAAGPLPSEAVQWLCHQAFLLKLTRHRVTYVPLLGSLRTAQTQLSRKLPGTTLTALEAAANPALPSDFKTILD

Biological target: T1, telomerase (Homo sapiens, UniProt O14746)
T1 construct: made in house; host or cells: 293 cells over-expressing hTERT
Assay: Bio-Tel FlashPlate telomerase activity assay
Type: biochemical
Settings: affinity-purified telomerase extract from 293 cells over-expressing hTERT; 30 min preincubation, 90 min at 37° C.

Substance: 5-[5-(4-trifluoromethoxyphenylaminosulfonyl)-N-(3,4-dichlorobenzyl)-isatin-3-ylidene]-thiazolidinedione [Example 24]
- IC50: < 100 µM
